Paper PMC3841123
These are yes or no findings as the source states them, for the method shown. Binding seen in cells or lysates may run through a third protein. Binding calls can cover weak binding; strength is not graded here.

Amino acid sequences for entries named in this document (tags omitted). A change or cut given only in a name is not applied to a line headed by its entry.
UniProt Q99418: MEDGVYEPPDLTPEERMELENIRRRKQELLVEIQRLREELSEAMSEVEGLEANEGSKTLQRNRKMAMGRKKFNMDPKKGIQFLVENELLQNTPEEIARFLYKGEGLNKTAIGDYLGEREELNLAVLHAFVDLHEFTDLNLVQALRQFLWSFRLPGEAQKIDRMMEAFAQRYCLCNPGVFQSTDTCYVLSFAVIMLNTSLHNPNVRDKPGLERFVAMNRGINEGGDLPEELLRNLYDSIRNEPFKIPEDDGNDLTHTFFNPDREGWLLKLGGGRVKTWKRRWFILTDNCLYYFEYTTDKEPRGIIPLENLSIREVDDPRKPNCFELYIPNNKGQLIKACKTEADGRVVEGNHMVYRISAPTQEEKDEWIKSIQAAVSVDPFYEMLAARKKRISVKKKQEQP

Biological target: GST-coiled-coil (fusion of GST to the cytohesin 2 coiled-coil domain) (UniProt Q99418)
Assay: pull-down; GST or GST-coiled-coil on glutathione beads, incubated with cleared lysate of MDCK cells infected with adenoviruses at 4°C; lysis and wash buffer 50 mM Tris pH 7.5, 100 mM NaCl, 2 mM MgCl2, 1% NP-40, 10% glycerol; bound proteins detected by anti-myc, anti-HA and anti-GFP Western blots; only the target purified

binding | Binder
binds | GRASP (protein, UniProt Q7Z6J2 1-395) MTLRRLRKLQQKEEAAATPDPAARTPDSEVAPAAPVPTPGPPAAAATPGPPADELYAALEDYHPAELYRALAVSGGTLPRRKGSGFRWKNLSQSPEQQRKVLTLEKEDNQTFGFEIQTYGLHHREEQRVEMVTFVCRVHESSPAQLAGLTPGDTIASVNGLNVEGIRHREIVDIIKASGNVLRLETLYGTSIRKAELEARLQYLKQTLYEKWGEYRSLMVQEQRLVHGLVVKDPSIYDTLESVRSCLYGAGLLPGSLPFGPLLAVPGRPRGGARRARGDADDAVYHTCFFGDSEPPALPPPPPPARAFGPGPAETPAVGPGPGPRAALSRSASVRCAGPGGGGGGGAPGALWTEAREQALCGPGLRKTKYRSFRRRLLKFIPGLNRSLEEEESQL
binds | CNK3/IPCEF (protein, UniProt Q8WWN9 1-437) MTSYMAIDGSALVPLRQKPRRKTQGFLTMSRRRISCKDLGHADCQGWLYKKKEKGSFLSNKWKKFWVILKGSSLYWYSNQMAEKADGFVNLPDFTVERASECKKKHAFKISHPQIKTFYFAAENVQEMNVWLNKLGSAVIHQESTTKDEECYSESEQEDPEIAAETPPPPHASQTQSLTAQQASSSSPSLSGTSYSFSSLENTVKTPSSFPSSLSKERQSLPDTVNSLSAAEDEGQPITFAVQVHSPVPSEAGIHKALENSFVTSESGFLNSLSSDDTSSLSSNHDHLTVPDKPAGSKIMDKEETKVSEDDEMEKLYKSLEQASLSPLGDRRPSTKKELRKSFVKRCKNPSINEKLHKIRTLNSTLKCKEHDLAMINQLLDDPKLTARKYREWKVMNTLLIQDIYQQQRASPAPDDTDDTPQELKKSPSSPSVENSI
